In article PMC11205660:

Test system: σHAs (SigH, ACSP50_0507) (Actinoplanes sp. SE50/110)
Experiment: EMSA
Details: 3.40 uM protein, 0.05 nM DNA, poly(dI-dC), LightShift Chemiluminescent EMSA kit per manufacturer, 0.05 nM biotinylated dsDNA, 0.05-1 nM unlabeled competitor, recombinant protein, protein details: C-terminal His6, label: 5' biotin on strand 1

GAAATTAGACTTTTGTTTTCTCTGTGATTACTGATCTTCGTGGAGGGGATTAGAGCCCCCG (double strand) [ACSP50_4135 promoter (-60 to +1)]
binding result (competed by excess unlabeled specific DNA): binds

GGCTGCACCCGCGGCTGCCTGATCTGCCTGTCCCACATCAAGTGCACGCCGAAGATGAAGA (double strand) [gLuc negative control]
binding result: no binding

ACGAGTGTCACTCATACTTTCGGCTAGTCTTTCGTCGGACACTCGGCTACGGTGGTCGCA (double strand) [sigHAs (ACSP50_0507) promoter (-60 to +1)]
binding result (reversed by excess unlabeled specific DNA): binds

The exact form of at least one protein or probe is not confirmed. A negative result means that nothing was seen under these conditions.
